From US20100203110A1, “Therapeutics for Cancer Using 3-Bromopyruvate and Other Selective Inhibitors of ATP Production” (The Johns Hopkins University, priority 2006, published 2010)
At least one structure is not confirmed: it was looked up by name or label, or the drawing left a doubt.

Test: Survival analysis, treatment versus control group (Kaplan-Meier)
Type: in vivo, rabbit
Settings: t-test, p-value<0.001
Text: FIG. 9 is a graph showing survival of untreated (control) versus 3-bromopyruvate treated animals.
The control group consisted of 10 animals and the treatment group consisted of 11 animals. The Kaplan-Meier method was used to estimate survival curves. […] The mean survival time in the control group is 18.6 days as compared to the treatment group, with 50.0 days.

With `O=C(O)C(=O)CBr` [3-bromopyruvate] the “95% C.I for mean difference of treatment−control survival” value was 27.36, 35.44.
